The record followed here is the supplement of paper PMC4604168 (melanoma cell lines).

This is one part of the list. Repeats are few or missing, and single values can be far off.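 Imaging used 1,536-well plates; nuclei positive for cleaved PARP by antibody were divided by total DNA-stained nuclei to yield the apoptosis fraction. Doses for screening kept most cells viable, and cell lines differ markedly in resting and induced cleaved-PARP levels.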

For the first experiment, the system named is COLO792. In words: cleaved PARP positive nuclei fraction relative to DMSO control; melanoma cells; higher = more apoptosis. To be noted: library dose: low library concentration; 72 h.
On to `CC(=O)O[C@@]12CO[C@@H]1C[C@H](O)[C@@]1(C)C(=O)[C@H](O)C3=C(C)[C@@H](OC(=O)[C@H](O)[C@@H](NC(=O)OC(C)(C)C)c4ccccc4)C[C@@](O)([C@@H](OC(=O)c4ccccc4)[C@H]21)C3(C)C` [Docetaxel] + COc1ccc(-c2ccc3c(N4CCOCC4)nc(N4C[C@@H](C)O[C@@H](C)C4)nc3n2)cc1CO [KU0063794] (first compound 0.0001 µM, partner dose 0.02 µM), for which the “cleaved PARP positive nuclei fraction” value was determined as 315%. As for `CS(=O)(=O)c1ccc(C(=O)Nc2ccc(Cl)c(-c3ccccn3)c2)c(Cl)c1` [vismodegib] + COc1cc(N2CCC(N3CCN(C)CC3)CC2)ccc1Nc1ncc(Cl)c(Nc2ccccc2S(=O)(=O)C(C)C)n1 [NVP-TAE684] (first compound 1 µM, partner dose 0.08 µM), the “cleaved PARP positive nuclei fraction” value worked out at 97.4%.

On to `NC(=O)c1ccc(N(C(N)=O)c2c(F)cccc2F)nc1-c1ccc(F)cc1F` + O=C(O)C(=O)Nc1sc2c(c1C(=O)O)CCNC2 [TCS401] (first compound 0.4 µM, partner dose 1.66667 µM), for which the “cleaved PARP positive nuclei fraction” value stood at 62.4%. Same read-out and setting: the result for `CCN(CC)CCNC(=O)c1c(C)[nH]c(/C=C2\C(=O)Nc3ccc(F)cc32)c1C` [sunitinib] + CC(C)CCN1c2nc(Nc3cc(F)c(O)c(F)c3)ncc2N(C)C(=O)C1C [BID1870] (first compound 0.4 µM, partner dose 0.2 µM) reads 90.9%.

In another experiment the test system is COLO800. The description is as above. To be noted: library dose: low library concentration; 72 h.
In the case of `NC1(c2ccc(-c3nc4ccn5c(=O)[nH]nc5c4cc3-c3ccccc3)cc2)CCC1` + Cc1cc([N+](=O)[O-])ccc1NS(=O)(=O)c1cc(Cl)ccc1Cl [FH535] (first compound 0.4 µM, partner dose 1 µM), the “cleaved PARP positive nuclei fraction” value is 157%. Same read-out and setting: the value for `NC1(c2ccc(-c3nc4ccn5c(=O)[nH]nc5c4cc3-c3ccccc3)cc2)CCC1` + O=S(=O)(c1ccccc1)N(CC(F)(F)F)c1ccc(C(O)(C(F)(F)F)C(F)(F)F)cc1 [T0901317] (first compound 0.4 µM, partner dose 1.4 µM) was 134%. On the same count and under the same terms, the value for `CS(=O)(=O)c1ccc(C(=O)Nc2ccc(Cl)c(-c3ccccn3)c2)c(Cl)c1` [vismodegib] + Oc1cc(-c2nc(-c3ccccc3)[nH]c2-c2ccncc2)ccc1Cl [L779450] (first compound 1 µM, partner dose 0.2 µM) was 90.3%. On the same count and under the same terms, the result for `C[C@]1(O)C[C@@H](c2nc(-c3ccc4ccc(-c5ccccc5)nc4c3)c3c(N)nccn32)C1` + CC(C)CCN1c2nc(Nc3cc(F)c(O)c(F)c3)ncc2N(C)C(=O)C1C [BID1870] (first compound 0.4 µM, partner dose 0.2 µM) reads 144%; that for `Cn1cnc2c(F)c(Nc3ccc(Br)cc3Cl)c(C(=O)NOCCO)cc21` [selumetinib] + CC(C)CCN1c2nc(Nc3cc(F)c(O)c(F)c3)ncc2N(C)C(=O)C1C [BID1870] (first compound 0.015 µM, partner dose 0.2 µM), 21%. Consider `C[C@]1(O)C[C@@H](c2nc(-c3ccc4ccc(-c5ccccc5)nc4c3)c3c(N)nccn32)C1` + CCN(CC)CCCCNc1ncc2cc(-c3cc(OC)cc(OC)c3)c(NC(=O)NC(C)(C)C)nc2n1 [PD173074] (first compound 0.4 µM, partner dose 0.1 µM), for which the “cleaved PARP positive nuclei fraction” value amounted to 125%. Take `CCCCCCCCc1ccc(CCC(N)(CO)CO)cc1` [fingolimod] + Cn1cc(/C=C2\C(=O)Nc3cccnc32)c2ccccc21 [GW441756] (first compound 2 µM, partner dose 0.4 µM): the “cleaved PARP positive nuclei fraction” value is 135%. Consider `CS(=O)(=O)c1ccc(C(=O)Nc2ccc(Cl)c(-c3ccccn3)c2)c(Cl)c1` [vismodegib] + COc1ccc(COc2ccc(Cc3cnc(N)nc3N)cc2OC)cc1 [GW2580] (first compound 1 µM, partner dose 1 µM), for which the “cleaved PARP positive nuclei fraction” value worked out at 49.3%. Still for that read-out and setting: the result for `CC(=O)O[C@@]12CO[C@@H]1C[C@H](O)[C@@]1(C)C(=O)[C@H](O)C3=C(C)[C@@H](OC(=O)[C@H](O)[C@@H](NC(=O)OC(C)(C)C)c4ccccc4)C[C@@](O)([C@@H](OC(=O)c4ccccc4)[C@H]21)C3(C)C` [Docetaxel] + c1cc(-c2cnn3cc(-c4ccc(OCCN5CCCCC5)cc4)cnc23)ccn1 [Dorsomorphin] (first compound 0.0001 µM, partner dose 0.4 µM) reads 157%.
